Data taken from ChEMBL document CHEMBL3988442, “University of Dundee, Small-Polar-MMV Screening Library” (2021).

Mtb growth Cornell: 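Whole-cell assay for inhibitors of Mycobacterium tuberculosis growth, labelled Cornell in the record; the read-out is not stated. The concentration is filed as 10 mM, unlikely as a test dose, so the dose is not known. The record gives no direction; compounds strong in two other growth screens of this library score well above the rest, so higher reads as stronger inhibition. About 53,000 compounds were tested under these conditions; 1.7% (about 900) showed 50% or more at least once.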
Mtb heat-shock: 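Assay on Mycobacterium tuberculosis, filed only as a heat shock assay from Cornell; the read-out is not stated. The concentration is filed as 10 mM, unlikely as a test dose, so the dose is not known. The record gives no direction; compounds that gave an IC50 in retests scored well above the rest, so higher reads as stronger inhibition. Of about 69,000 compounds tested this way, about 930 (1.4%) reached 50% or more in at least one test.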

Results are given as percent effect.
How 0% and 100% were set is not recorded. Most values in the screen are low, and negative values occur.
This is an unselected part of the compounds tested.
A dash means the value is not listed here; it may have been measured.

SMILES | Mtb growth Cornell | Mtb heat-shock
CCn1nccc1CN(C)C(=O)Cn1nc(C)cc1C | -29.59 | -7.366
Cc1ccnc(N2CCCC(c3nncn3C3CC3)C2)n1 (configuration not stated) | 12.7 | 2.234
CCC(CO)NCc1ccc(-c2ccc(Cl)cc2)o1.Cl (configuration not stated) | 16.24 | 6.717
Cc1cc(CN2C[C@@H](C)[C@@]3(CCN(C)C3=O)C2)oc1C.O=C(O)C(F)(F)F | -2.894 | -23.19
CCc1nc(C2CCCN2CCc2cccs2)no1 (configuration not stated) | -18.58 | -30.06
CC(C)(C)OCCN1CCCC1c1nc(Cc2ccc(F)cc2)no1 (configuration not stated) | -40.75 | -13.79
Cc1ccc(NC2CCN(C(=O)COc3cccnc3)CC2)nn1 | - | -17.78
CC(=O)c1ccc(-n2ccc3nc(N4CCCC4)ncc3c2=O)cc1 | -19.45 | 10.45
Cc1ccsc1C(Cc1ccccc1)NC(=O)CNC(=O)C1CC1 (configuration not stated) | - | 5.915
CN(C)CC1(O)CCN(C(=O)c2ccc(-n3cnnc3)cc2Cl)C1 (configuration not stated) | -31.44 | -2.764
CCn1ccnc1CN1CCN(CC(O)c2cccc(F)c2)CC1 (configuration not stated) | - | -2.817
Cc1ccc(-c2nc(CN3CCOCC3)no2)cc1N1CCNC1=O | - | 17.84
Cc1nn(C)c(C)c1C1CCCN1Cc1nc(-c2cccs2)no1 (configuration not stated) | 7.619 | -0.5646
Clc1ccc(CN2CCCCC2Cn2cncn2)c2ncccc12 (configuration not stated) | - | 0.4744
Cc1cc(NC(=O)CN2CCOC(Cn3nc(C)cc3C)C2)n(C)n1 (configuration not stated) | -8.174 | 16.67
CC(=O)N1CCC(C)(c2cc[nH]n2)CC1 | -3.188 | 4.8
Cc1ccc2c(c1)CCCN2C(=O)c1cncc(Br)c1 | 26.45 | -8.515
CC1CCc2nc(O)c(C(=O)NCc3ccncc3)cc2C1 (configuration not stated) | -4.541 | -10.18
[H][C@@]12CCN(Cc3ccsc3)C[C@]1([H])[C@@H](CN1CCN(C)CC1)OC2 | - | -29.68
CCOC(=O)c1cn(CC(O)c2ccccc2OC)nn1 (configuration not stated) | 29.75 | 25.18
Cc1ccc(-c2nnc(CN3CC[C@H](CO)[C@@H](O)C3)o2)n1C | - | -7.616
Cc1cnn(CC2CN(Cc3nc(-c4ccco4)no3)CCO2)c1 (configuration not stated) | - | 1.019
CCC1CCCCN1Cc1ncc(-c2ccc(OC)cc2)o1 (configuration not stated) | 3.905 | -18.53
Cc1nc(CNc2nc(-c3ccco3)nc3c2CCNCC3)n[nH]1 | - | 10.85
O=C(CCCNc1ncccn1)Nc1cc(C(F)(F)F)c[nH]c1=O | - | -11.09
Cc1cc(C[C@@H]2CCC[C@H]2NCc2ccccc2F)on1.O=C(O)CC(O)(CC(=O)O)C(=O)O | - | -6.563
Cc1nc2ccccc2n(Cc2nnnn2C2CC2)c1=O | 17.12 | 29.39
CC(C)OCCOCc1cccc(NC(=O)NCc2ccncc2)c1 | -5.114 | 2.25
O=C(O)C(F)(F)F.[H][C@@]12CCN(Cc3ccc4ccccc4n3)[C@]1([H])CC[C@@H](C(=O)NC(C)C)O2 | 29.94 | -8.392
CC(C)Nc1ncc(CN2C[C@@H](CN3CCC(O)CC3)[C@@H](CO)C2)cn1 | 18.25 | -6.022
O=C(NCCNc1ncccn1)C1CCN(C(=O)NC2CC2)CC1 | -5.946 | 12.93
CC(=O)NCCCNCc1ccc(Cl)c2cccnc12 | - | -26.57
Cc1cccc(NC(=O)CNC(=O)c2ccccc2F)c1 | -22.79 | -2.786
CC(C)SCC(=O)N1CCc2c(nc(N(C)C)nc2N(C)C)C1 | 17.89 | -12.03
Cc1nc(CC(=O)N2CCN(c3ccc(N(C)C)cc3)CC2)cs1 | 18.43 | -1.713
CCCOCCn1ncc(N2CCc3ccccc3C2)cc1=O | 27.72 | 8.233
N#Cc1ccc(F)c(CNc2ccc(F)cc2OCCO)c1 | -13.86 | -35.26
O=C(CN1C=Nc2ccccc2S1(=O)=O)NCc1ccccc1F | 12.35 | -9.619
c1ccc(CCN2CCN(c3ncnc4[nH]ccc34)CC2)cc1 | 9.577 | -9.023
CCN(Cc1cccc(-c2ccncc2)c1)S(N)(=O)=O | 25.15 | -7.847
O=C1CC(c2ccc(C(=O)O)cc2)c2ncn(-c3ccccc3Cl)c2N1 (configuration not stated) | 11.03 | 20.31
COCCN(Cc1ccc(C)cc1)CC1CCOC1 (configuration not stated) | 12.17 | -40.71
Fc1ccc(C2(NCc3noc(C4CC4)n3)CCC2)cc1 | - | 16.43
O=C(CN1CCOC(Cn2cccn2)C1)Nc1nncs1 (configuration not stated) | - | -7.801
Cc1cccc2[nH]c(C3CCN(C(=O)c4cccnn4)CC3)nc12 | -2.157 | -16.47
CCN(CC)C(CNS(=O)(=O)c1ccc(C(=O)NC)cc1)c1ccco1 (configuration not stated) | 27.22 | -9.395
Cc1cc(CN2CCN(C(=O)NC(C)Cn3cccn3)CC2)no1 (configuration not stated) | - | -10.07
CNc1ccc(CC2CCCN(C(=O)c3cnco3)C2)nn1 (configuration not stated) | - | -3.209
Cc1ccccc1NS(=O)(=O)c1ccc(C(=O)O)cc1F | 1.649 | -6.14
CN1C(=O)CCC12CCCN(Cc1nccs1)C2.O=C(O)C(F)(F)F (configuration not stated) | -24.43 | -6.762
Cc1ccsc1CN1CCc2c(nc(N3CCCCC3C)[nH]c2=O)C1 (configuration not stated) | - | -8.049
Cc1cc(-c2cnc(C)nc2CN(C)C(=O)c2ccccn2)on1 | -10.39 | 17.7
CC(C)[C@H](NC(=O)Cn1nc2c(cc1=O)CCCC2)C(=O)O | 22.73 | 12.32
Cc1nc2cc(C(=O)N(CCN(C)C)CCN(C)C)ccc2n1C | 0.05037 | -14.45
O=C(NC1CC1)N(CCc1ccccc1)C1CCOC1 (configuration not stated) | 26.43 | -44.19
[H][C@@]12COC[C@]1(C(=O)NC(C)C)CN(Cc1cnn(C)c1)C2 | - | 6.252
O=C(O)C(F)(F)F.O=C(O)C(F)(F)F.O=C(O)C(F)(F)F.[H][C@]12C[C@@H](Cn3cccn3)N(C(C)C)[C@@]1([H])CCN(Cc1ccoc1)C2 | 26.75 | -9.888
Cc1ccc(CN2CCC3(CC2)CC3CN(C)Cc2cccnc2)o1.O=C(O)C(F)(F)F.O=C(O)C(F)(F)F.O=C(O)C(F)(F)F (configuration not stated) | 19.4 | -34.2
CCn1cc(CN(C)S(=O)(=O)c2ccccc2)cn1 | - | -14.41
Cc1nn(C(C)C)c(C)c1S(=O)(=O)Nc1cccc(C(=O)O)c1 | -0.6392 | 18.04
CCc1nc(CN2CCN(c3ncnc4cc(F)ccc34)CC2)no1 | -0.6837 | -30.22
Cc1cc(NC(=O)CN2CCCC2c2noc(C3CC3)n2)no1 (configuration not stated) | -19.39 | 1.774